Source: PubChem BioAssay AID493246 (Drosophila RNAi Screening Center, 2011)
Aim: 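Genes fly cells need to grow and stay alive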 (primary screen). Cell system: Drosophila Kc and S2R+ cells. Reagents: long dsRNA against Drosophila genes. Measurement: 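Raw, unnormalised count of remaining cells in each well; per-plate z-scores of cell number underlie the calls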. Direction: Kc cell number and S2R+ cell number: higher = more cells remaining. Rule for the call: 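Active when the per-plate z-score of cell number is 3 or more in the direction of fewer cells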.
In all, the deposit lists about 21,000 reagents; below is an unselected part of those with a known target gene and a result. Over the whole deposit, 429 (2%) got an active call. 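Values are raw and not normalised between plates; calls rest on per-plate z-scores that were not deposited.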 A number with no mark means an inactive call. The numbers tell different reagents against one gene apart. A plus sign joins genes that one reagent is predicted to hit. No sequences are given here. Not stated in the record: the amount of reagent, the time to read-out.

gene knocked down | dsRNA no. | Kc cell number, rep 1 | Kc cell number, rep 2 | S2R+ cell number, rep 1 | S2R+ cell number, rep 2
CAH2 | 1 | 1.27e6 | 1.37e6 | 1.29e6 | 1.30e6
Arms | 1 | 5.42e5 | – | 9.33e5 | –
Arms | 2 | 5.52e5 | – | 8.45e5 | –
Arms | 3 | 1.44e6 | 1.60e6 | 1.11e6 | 1.10e6
Arms | 4 | 1.05e6 (active) | 1.17e6 | 1.02e6 | 3.23e5
CG32639 | 1 | 1.58e6 | 1.86e6 | 1.12e6 | 1.26e6
CG15731 | 1 | 1.69e6 | 1.59e6 | 1.11e6 | 1.26e6
CG13137 | 1 | 1.48e6 | 1.53e6 | 1.20e6 | 1.36e6
mRpS7 | 1 | 1.48e6 | 1.52e6 | 1.09e6 | 1.22e6
CG1888 | 1 | 1.60e6 | 1.62e6 | 1.33e6 | 1.38e6
nod | 1 | 1.32e6 | 1.53e6 | 1.04e6 | 1.11e6
nod | 2 | 5.73e5 | – | 7.30e5 | –
exd | 1 | 1.57e6 | 1.58e6 | 1.10e6 | 1.22e6
CG11438 | 1 | 1.76e6 | 1.75e6 | 1.46e6 | 1.52e6
bves | 1 | 1.49e6 | 1.50e6 | 1.11e6 | 1.17e6
bves | 2 | 1.56e6 | 1.55e6 | 1.09e6 | 1.29e6
bves | 3 | 1.52e6 | 1.55e6 | 1.12e6 | 1.31e6
Drsl5 | 1 | 1.55e6 | 1.32e6 | 8.91e5 | 1.07e6
CG31637 | 1 | 1.20e6 | 1.40e6 | 4.30e5 | 3.50e5
CG31637 | 2 | 1.64e6 | 1.60e6 | 1.18e6 | 1.41e6
CG12581 | 1 | 1.48e6 | 1.51e6 | 1.33e6 | 1.35e6
CG12581 | 2 | 1.36e6 | 1.32e6 | 1.30e6 | 1.38e6
Hen1 | 1 | 1.43e6 | 1.52e6 | 1.07e6 | 1.20e6
Hen1 | 2 | 1.70e6 | 1.63e6 | 1.39e6 | 1.55e6
CG1806 | 1 | 5.90e5 | – | 8.61e5 | –
CG6310 | 1 | 1.39e6 | 1.32e6 | 1.22e6 | 1.30e6
CG9240 | 1 | 1.42e6 | 1.49e6 | 9.26e5 | 9.98e5
CG17746 | 1 | 1.35e6 | 1.37e6 | 1.25e6 | 1.16e6
CG14692 | 1 | 1.59e6 | 1.75e6 | 1.37e6 | 1.45e6
CG7542 | 1 | 1.27e6 | 1.39e6 | 1.24e6 | 1.22e6
CG8236 | 1 | 1.52e6 | 1.74e6 | 1.41e6 | 1.57e6
CG8563 | 1 | 1.31e6 | 1.40e6 | 1.09e6 | 1.16e6
AsnS | 1 | 1.40e6 | 1.37e6 | 9.85e5 | 1.13e6
CG11458 | 1 | 1.55e6 | 1.61e6 | 1.37e6 | 1.42e6
Pgant5 | 1 | 1.28e6 | 1.32e6 | 5.34e5 | 5.96e5
CG17002 | 1 | 1.48e6 | 1.54e6 | 1.19e6 | 1.21e6
CG13667 | 1 | 1.32e6 | 1.46e6 | 1.14e6 | 1.08e6
Rsph3 | 1 | 1.39e6 | 1.50e6 | 1.17e6 | 1.16e6
Rsph3 | 2 | 1.37e6 | 1.62e6 | 1.16e6 | 1.25e6
puc | 1 | 1.44e6 | 1.60e6 | 9.02e5 | 1.02e6
glob2 | 1 | 1.42e6 | 1.65e6 | 1.36e6 | 1.59e6
CG12301 | 1 | 1.42e6 | 1.46e6 | 1.38e6 | 1.43e6
wds | 1 | 1.51e6 | 1.56e6 | 1.03e6 | 1.16e6
CG31743 + CG34313 | 1 | 1.37e6 | 1.47e6 | 1.38e6 | 1.28e6
CG31743 + CG34313 | 2 | 1.70e6 | 1.88e6 | 1.19e6 | 1.27e6
CG17568 | 1 | 1.30e6 | 1.41e6 | 1.02e6 | 1.18e6
CG33467 | 1 | 1.50e6 | 1.47e6 | 9.90e5 | 1.14e6
Aldh7A1 | 1 | 1.55e6 | 1.56e6 | 1.39e6 | 1.46e6
Esyt2 | 1 | 1.52e6 | 1.64e6 | 1.14e6 | 1.22e6
SLC5A11 | 1 | 1.33e6 | 1.31e6 | 6.37e5 | 8.81e5
Nrd1 | 1 | 5.46e5 | – | 8.21e5 | –
CG6937 + btn | 1 | 1.73e6 | 1.56e6 | 9.94e5 | 1.09e6
Hsp60C | 1 | 1.66e6 | 1.68e6 | 1.22e6 | 1.33e6
Mayo | 1 | 1.64e6 | 1.69e6 | 1.09e6 | 1.20e6
Grl43a | 1 | 1.69e6 | 1.78e6 | 1.40e6 | 1.57e6
Desat1 | 1 | 5.58e5 (active) | 5.92e5 | 1.09e6 | 1.20e6
CG14333 (retired record) | 1 | 1.23e6 | 1.32e6 | 1.13e6 | 1.24e6
CG14333 (retired record) | 2 | 1.50e6 | 1.57e6 | 1.14e6 | 1.23e6
Akr1B | 1 | 1.42e6 | 1.53e6 | 1.15e6 | 1.06e6

5 neighbouring reagents already listed:
gene knocked down | dsRNA no. | Kc cell number, rep 1 | Kc cell number, rep 2 | S2R+ cell number, rep 1 | S2R+ cell number, rep 2
CG31637 | 2 | 1.64e6 | 1.60e6 | 1.18e6 | 1.41e6
CG12581 | 1 | 1.48e6 | 1.51e6 | 1.33e6 | 1.35e6
CG12581 | 2 | 1.36e6 | 1.32e6 | 1.30e6 | 1.38e6
Hen1 | 1 | 1.43e6 | 1.52e6 | 1.07e6 | 1.20e6
Hen1 | 2 | 1.70e6 | 1.63e6 | 1.39e6 | 1.55e6
